At least one read-out could not be matched to a standard name with certainty.
Assay: Comparative solubility of BMDBM in 1:1 mixture of C12-15 alkyl benzoate and a polymeric or solid UV-filter
Settings: summary in words

For CCCCC(CC)COc1ccc(-c2nc(-c3ccc(OC)cc3)nc(-c3ccc(OCC(CC)CCCC)cc3O)n2)c(O)c1 (stereo not shown) [BEMT, bis-ethylhexyloxyphenol methoxyphenyl triazine], the “enhancement of the solubility of BMDBM in C12-15 alkyl benzoate by the UV-filter” value was “can neither be enhanced”.

Reference: patent publication US20120288456A1, “NOVEL COMPOUND” (priority 2009, published 2012)
